Reference: publication PMC7935965
These are yes or no findings as the source states them, for the method shown. In cells and extracts the contact can be indirect. Some binding calls cover weakened binding; strength is not graded here. For part of these data: Where a sequence is shown, tags or fusion partners need not be part of it. Each block holds one binder with its values, some of them ahead of it.

Key:
Flag-RNF8 = target: T1, Flag-RNF8 (UniProt O76064); experiment: co-IP; anti-Flag (M2) immunoprecipitation from lysates of transfected U2OS cells, SDS-free buffer; western blot for the endogenous partner
T1 sequence: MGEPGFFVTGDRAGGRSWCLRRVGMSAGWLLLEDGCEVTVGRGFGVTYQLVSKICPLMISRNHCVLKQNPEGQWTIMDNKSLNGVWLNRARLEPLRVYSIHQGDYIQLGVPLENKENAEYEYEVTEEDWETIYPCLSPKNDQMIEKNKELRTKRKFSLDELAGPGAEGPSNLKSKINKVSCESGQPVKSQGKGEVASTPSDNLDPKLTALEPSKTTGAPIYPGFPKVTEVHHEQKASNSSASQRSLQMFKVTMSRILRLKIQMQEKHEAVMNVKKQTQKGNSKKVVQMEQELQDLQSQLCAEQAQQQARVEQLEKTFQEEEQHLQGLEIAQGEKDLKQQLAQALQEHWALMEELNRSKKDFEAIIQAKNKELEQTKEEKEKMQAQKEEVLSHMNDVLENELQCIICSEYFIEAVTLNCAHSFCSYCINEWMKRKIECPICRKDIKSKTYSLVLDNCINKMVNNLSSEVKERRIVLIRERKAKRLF

[1] = target: T2, endogenous RNF8 (human (endogenous in U2OS)) (UniProt O76064); experiment: co-IP; immunoprecipitation with anti-RNF8 antibody from U2OS lysate, both proteins endogenous; western blot with anti-RecQL4
T2 sequence: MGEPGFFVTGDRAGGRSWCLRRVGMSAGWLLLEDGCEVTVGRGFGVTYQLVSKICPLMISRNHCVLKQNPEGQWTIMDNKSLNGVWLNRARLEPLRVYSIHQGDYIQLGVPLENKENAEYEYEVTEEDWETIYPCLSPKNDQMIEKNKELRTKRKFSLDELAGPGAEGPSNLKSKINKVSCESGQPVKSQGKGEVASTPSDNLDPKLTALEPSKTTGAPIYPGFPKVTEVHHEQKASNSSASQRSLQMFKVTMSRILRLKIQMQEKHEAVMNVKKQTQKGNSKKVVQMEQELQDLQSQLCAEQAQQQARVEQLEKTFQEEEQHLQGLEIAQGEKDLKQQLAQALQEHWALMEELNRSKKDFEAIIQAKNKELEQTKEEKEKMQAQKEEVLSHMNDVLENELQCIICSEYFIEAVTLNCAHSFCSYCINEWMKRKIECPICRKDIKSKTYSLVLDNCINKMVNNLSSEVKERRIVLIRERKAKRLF

Flag-RecQL4 (human) = target: T3, Flag-RecQL4 (human) (UniProt O94761); experiment: co-IP; anti-Flag (M2) immunoprecipitation from lysates of transfected U2OS cells, SDS-free buffer; western blot for the endogenous partner
T3 sequence: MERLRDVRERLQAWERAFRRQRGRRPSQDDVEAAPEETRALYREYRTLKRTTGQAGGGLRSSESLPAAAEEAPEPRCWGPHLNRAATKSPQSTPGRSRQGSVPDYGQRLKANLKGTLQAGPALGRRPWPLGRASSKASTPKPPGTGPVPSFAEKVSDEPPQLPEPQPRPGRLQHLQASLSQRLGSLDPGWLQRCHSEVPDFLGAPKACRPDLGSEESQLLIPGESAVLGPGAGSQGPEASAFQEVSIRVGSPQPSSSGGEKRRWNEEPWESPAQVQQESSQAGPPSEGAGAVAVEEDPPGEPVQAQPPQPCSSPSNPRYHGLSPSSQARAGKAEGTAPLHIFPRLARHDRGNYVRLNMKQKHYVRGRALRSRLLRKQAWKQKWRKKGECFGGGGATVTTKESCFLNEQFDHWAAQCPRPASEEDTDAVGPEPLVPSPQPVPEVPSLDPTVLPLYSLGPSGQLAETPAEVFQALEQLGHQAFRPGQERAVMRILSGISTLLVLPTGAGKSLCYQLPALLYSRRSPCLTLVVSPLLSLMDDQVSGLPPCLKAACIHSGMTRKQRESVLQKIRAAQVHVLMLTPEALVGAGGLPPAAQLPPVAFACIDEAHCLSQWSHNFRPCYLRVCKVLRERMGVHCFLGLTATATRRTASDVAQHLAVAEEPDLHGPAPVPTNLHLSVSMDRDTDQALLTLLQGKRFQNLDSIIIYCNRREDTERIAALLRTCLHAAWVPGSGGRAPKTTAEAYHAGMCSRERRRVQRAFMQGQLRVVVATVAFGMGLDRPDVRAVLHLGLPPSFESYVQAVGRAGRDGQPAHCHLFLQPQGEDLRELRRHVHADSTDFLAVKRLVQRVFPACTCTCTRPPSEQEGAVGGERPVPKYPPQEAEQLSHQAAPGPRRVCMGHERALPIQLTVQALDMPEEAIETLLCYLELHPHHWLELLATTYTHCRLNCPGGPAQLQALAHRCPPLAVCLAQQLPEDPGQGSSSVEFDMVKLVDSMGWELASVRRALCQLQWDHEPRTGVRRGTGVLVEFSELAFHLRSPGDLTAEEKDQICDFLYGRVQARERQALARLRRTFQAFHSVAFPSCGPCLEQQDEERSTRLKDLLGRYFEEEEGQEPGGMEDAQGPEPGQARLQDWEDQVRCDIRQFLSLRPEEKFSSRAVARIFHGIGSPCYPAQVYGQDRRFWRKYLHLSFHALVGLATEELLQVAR

Flag-RecQL4-CT (human) = target: T4, Flag-RecQL4-CT (human) (UniProt O94761); experiment: co-IP; Flag-tagged RecQL4 domains (NT, HD, CT) immunoprecipitated, western blot with anti-RNF8 antibody; cells not given
T4 sequence: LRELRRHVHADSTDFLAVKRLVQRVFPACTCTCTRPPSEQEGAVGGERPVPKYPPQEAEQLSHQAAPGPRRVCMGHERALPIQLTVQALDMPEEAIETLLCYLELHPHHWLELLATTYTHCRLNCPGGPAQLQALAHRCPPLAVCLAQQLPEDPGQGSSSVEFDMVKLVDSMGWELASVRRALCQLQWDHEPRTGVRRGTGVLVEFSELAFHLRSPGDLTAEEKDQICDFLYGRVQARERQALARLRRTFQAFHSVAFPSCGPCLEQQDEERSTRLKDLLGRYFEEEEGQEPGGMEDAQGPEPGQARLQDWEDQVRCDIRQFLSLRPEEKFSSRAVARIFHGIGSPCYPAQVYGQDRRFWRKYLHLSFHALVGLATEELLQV

Flag-RecQL4-NT (human) = target: T5, Flag-RecQL4-NT (human) (UniProt O94761); experiment: as above
T5 sequence: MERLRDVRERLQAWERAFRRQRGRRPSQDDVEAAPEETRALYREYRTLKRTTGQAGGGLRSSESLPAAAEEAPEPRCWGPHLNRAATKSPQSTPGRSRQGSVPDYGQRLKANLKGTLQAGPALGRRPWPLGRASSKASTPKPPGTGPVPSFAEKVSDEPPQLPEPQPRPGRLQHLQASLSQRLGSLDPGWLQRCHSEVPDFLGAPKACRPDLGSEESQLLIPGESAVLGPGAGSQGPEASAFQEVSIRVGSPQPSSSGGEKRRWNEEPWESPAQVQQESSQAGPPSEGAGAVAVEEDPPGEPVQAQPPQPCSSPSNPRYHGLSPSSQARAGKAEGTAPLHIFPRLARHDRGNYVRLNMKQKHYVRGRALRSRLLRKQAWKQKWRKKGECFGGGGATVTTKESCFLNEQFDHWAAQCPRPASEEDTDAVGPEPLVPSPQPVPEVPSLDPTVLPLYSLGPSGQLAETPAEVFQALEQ

Flag-RecQL4-HD (human) = target: T6, Flag-RecQL4-HD (human) (UniProt O94761); experiment: as above
T6 sequence: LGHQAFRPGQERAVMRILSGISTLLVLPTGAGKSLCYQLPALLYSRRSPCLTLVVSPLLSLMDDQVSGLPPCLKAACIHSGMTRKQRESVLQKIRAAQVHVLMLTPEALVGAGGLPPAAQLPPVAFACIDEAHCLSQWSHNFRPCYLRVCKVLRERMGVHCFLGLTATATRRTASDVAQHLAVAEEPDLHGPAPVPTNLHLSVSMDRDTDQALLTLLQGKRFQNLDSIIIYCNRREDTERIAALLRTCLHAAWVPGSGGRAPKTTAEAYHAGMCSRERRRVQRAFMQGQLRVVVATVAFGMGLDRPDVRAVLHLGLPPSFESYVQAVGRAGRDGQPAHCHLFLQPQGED

- binding (Flag-RNF8): binds
- binding [1]: binds
B1: endogenous RecQL4 (protein, UniProt O94761 1-1208)
chain: MERLRDVRERLQAWERAFRRQRGRRPSQDDVEAAPEETRALYREYRTLKRTTGQAGGGLRSSESLPAAAEEAPEPRCWGPHLNRAATKSPQSTPGRSRQGSVPDYGQRLKANLKGTLQAGPALGRRPWPLGRASSKASTPKPPGTGPVPSFAEKVSDEPPQLPEPQPRPGRLQHLQASLSQRLGSLDPGWLQRCHSEVPDFLGAPKACRPDLGSEESQLLIPGESAVLGPGAGSQGPEASAFQEVSIRVGSPQPSSSGGEKRRWNEEPWESPAQVQQESSQAGPPSEGAGAVAVEEDPPGEPVQAQPPQPCSSPSNPRYHGLSPSSQARAGKAEGTAPLHIFPRLARHDRGNYVRLNMKQKHYVRGRALRSRLLRKQAWKQKWRKKGECFGGGGATVTTKESCFLNEQFDHWAAQCPRPASEEDTDAVGPEPLVPSPQPVPEVPSLDPTVLPLYSLGPSGQLAETPAEVFQALEQLGHQAFRPGQERAVMRILSGISTLLVLPTGAGKSLCYQLPALLYSRRSPCLTLVVSPLLSLMDDQVSGLPPCLKAACIHSGMTRKQRESVLQKIRAAQVHVLMLTPEALVGAGGLPPAAQLPPVAFACIDEAHCLSQWSHNFRPCYLRVCKVLRERMGVHCFLGLTATATRRTASDVAQHLAVAEEPDLHGPAPVPTNLHLSVSMDRDTDQALLTLLQGKRFQNLDSIIIYCNRREDTERIAALLRTCLHAAWVPGSGGRAPKTTAEAYHAGMCSRERRRVQRAFMQGQLRVVVATVAFGMGLDRPDVRAVLHLGLPPSFESYVQAVGRAGRDGQPAHCHLFLQPQGEDLRELRRHVHADSTDFLAVKRLVQRVFPACTCTCTRPPSEQEGAVGGERPVPKYPPQEAEQLSHQAAPGPRRVCMGHERALPIQLTVQALDMPEEAIETLLCYLELHPHHWLELLATTYTHCRLNCPGGPAQLQALAHRCPPLAVCLAQQLPEDPGQGSSSVEFDMVKLVDSMGWELASVRRALCQLQWDHEPRTGVRRGTGVLVEFSELAFHLRSPGDLTAEEKDQICDFLYGRVQARERQALARLRRTFQAFHSVAFPSCGPCLEQQDEERSTRLKDLLGRYFEEEEGQEPGGMEDAQGPEPGQARLQDWEDQVRCDIRQFLSLRPEEKFSSRAVARIFHGIGSPCYPAQVYGQDRRFWRKYLHLSFHALVGLATEELLQVAR

- binding (Flag-RecQL4 (human)): binds
B2: endogenous RNF8 (protein, UniProt O76064-1 1-485)
chain: MGEPGFFVTGDRAGGRSWCLRRVGMSAGWLLLEDGCEVTVGRGFGVTYQLVSKICPLMISRNHCVLKQNPEGQWTIMDNKSLNGVWLNRARLEPLRVYSIHQGDYIQLGVPLENKENAEYEYEVTEEDWETIYPCLSPKNDQMIEKNKELRTKRKFSLDELAGPGAEGPSNLKSKINKVSCESGQPVKSQGKGEVASTPSDNLDPKLTALEPSKTTGAPIYPGFPKVTEVHHEQKASNSSASQRSLQMFKVTMSRILRLKIQMQEKHEAVMNVKKQTQKGNSKKVVQMEQELQDLQSQLCAEQAQQQARVEQLEKTFQEEEQHLQGLEIAQGEKDLKQQLAQALQEHWALMEELNRSKKDFEAIIQAKNKELEQTKEEKEKMQAQKEEVLSHMNDVLENELQCIICSEYFIEAVTLNCAHSFCSYCINEWMKRKIECPICRKDIKSKTYSLVLDNCINKMVNNLSSEVKERRIVLIRERKAKRLF

- binding (Flag-RecQL4-CT (human)): binds
- binding (Flag-RecQL4-NT (human)): binds
- binding (Flag-RecQL4-HD (human)): binds
B3: RNF8 (co-IP with the RecQL4 domains) (protein, UniProt O76064-1 1-485)
chain: MGEPGFFVTGDRAGGRSWCLRRVGMSAGWLLLEDGCEVTVGRGFGVTYQLVSKICPLMISRNHCVLKQNPEGQWTIMDNKSLNGVWLNRARLEPLRVYSIHQGDYIQLGVPLENKENAEYEYEVTEEDWETIYPCLSPKNDQMIEKNKELRTKRKFSLDELAGPGAEGPSNLKSKINKVSCESGQPVKSQGKGEVASTPSDNLDPKLTALEPSKTTGAPIYPGFPKVTEVHHEQKASNSSASQRSLQMFKVTMSRILRLKIQMQEKHEAVMNVKKQTQKGNSKKVVQMEQELQDLQSQLCAEQAQQQARVEQLEKTFQEEEQHLQGLEIAQGEKDLKQQLAQALQEHWALMEELNRSKKDFEAIIQAKNKELEQTKEEKEKMQAQKEEVLSHMNDVLENELQCIICSEYFIEAVTLNCAHSFCSYCINEWMKRKIECPICRKDIKSKTYSLVLDNCINKMVNNLSSEVKERRIVLIRERKAKRLF
